In assay [1] the target is recombinant His-tagged EGFR protein (EGFR extracellular domain recombinant protein, Novoprotein CI61) (UniProt P00533). Put plainly: anti-His IP of 5 µg each of purified recombinant proteins in PBS, WB.
Assay [2] has as its target integrin αv subunit (human) (UniProt P06756). Put plainly: anti-HA co-IP from LM2 cells expressing Tinagl1-HA, WB.

Amino acid sequences for entries named in this document (tags omitted). Residues count along the entry.
UniProt P06756, residues 31-1048: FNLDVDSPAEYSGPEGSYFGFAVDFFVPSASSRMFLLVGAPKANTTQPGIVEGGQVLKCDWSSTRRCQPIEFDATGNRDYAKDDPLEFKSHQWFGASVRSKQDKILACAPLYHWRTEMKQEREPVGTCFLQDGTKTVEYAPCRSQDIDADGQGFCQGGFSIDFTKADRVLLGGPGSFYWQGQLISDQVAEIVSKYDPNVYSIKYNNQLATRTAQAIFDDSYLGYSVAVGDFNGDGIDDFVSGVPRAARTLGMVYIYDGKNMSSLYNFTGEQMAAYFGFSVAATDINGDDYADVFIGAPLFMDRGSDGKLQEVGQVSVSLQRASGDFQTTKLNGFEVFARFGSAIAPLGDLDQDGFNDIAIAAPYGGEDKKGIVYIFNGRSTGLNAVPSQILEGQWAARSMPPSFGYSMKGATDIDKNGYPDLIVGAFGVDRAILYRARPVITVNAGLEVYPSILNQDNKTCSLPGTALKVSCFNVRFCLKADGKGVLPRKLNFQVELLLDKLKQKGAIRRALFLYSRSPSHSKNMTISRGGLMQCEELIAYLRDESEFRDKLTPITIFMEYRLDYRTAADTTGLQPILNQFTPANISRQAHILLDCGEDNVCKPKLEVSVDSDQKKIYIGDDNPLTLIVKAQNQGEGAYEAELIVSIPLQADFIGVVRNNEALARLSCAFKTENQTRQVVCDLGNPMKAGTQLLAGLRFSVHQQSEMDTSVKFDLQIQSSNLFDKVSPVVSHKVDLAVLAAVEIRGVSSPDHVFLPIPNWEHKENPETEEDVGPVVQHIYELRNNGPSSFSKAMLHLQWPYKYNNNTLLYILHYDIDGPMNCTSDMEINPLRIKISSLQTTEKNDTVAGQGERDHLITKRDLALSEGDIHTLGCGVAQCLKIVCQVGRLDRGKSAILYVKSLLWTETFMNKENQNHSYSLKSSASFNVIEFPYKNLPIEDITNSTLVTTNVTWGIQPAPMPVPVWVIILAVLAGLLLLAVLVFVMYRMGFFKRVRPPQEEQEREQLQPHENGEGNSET

No constants are given. Whether binding was seen depends on the method and setting. For some assays here: Binding seen in cells or lysates may run through a third protein. Some entries that bind do so weakly or less than the wild type. Where a sequence is shown, tags or fusion partners need not be part of it.

B1: full length recombinant human Tinagl1 with 6xHis tag at the C-terminus (r-Tinagl1) (protein)
chain: AQQGRGRRELAPGLHLRGIRDAGGRYCQEQDLCCRGRADDCALPYLGAICYCDLFCNRTVSDCCPDFWDFCLGVPPPFPPIQGCMHGGRIYPVLGTYWDNCNRCTCQENRQWQCDQEPCLVDPDMIKAINQGNYGWQAGNHSAFWGMTLDEGIRYRLGTIRPSSSVMNMHEIYTVLNPGEVLPTAFEASEKWPNLIHEPLDQGNCAGSWAFSTAAVASDRVSIHSLGHMTPVLSPQNLLSCDTHQQQGCRGGRLDGAWWFLRRRGVVSDHCYPFSGRERDEAGPAPPCMMHSRAMGRGKRQATAHCPNSYVNNNDIYQVTPVYRLGSNDKEIMKELMENGPVQALMEVHEDFFLYKGGIYSHTPVSLGRPERYRRHGTHSVKITGWGEETLPDGRTLKYWTAANSWGPAWGERGHFRIVRGVNECDIESFVLGVWGRVGMEDMGHHVDHHHHHH
For B1, the binding result in assay [1] was “binds”.

B2: C-terminal HA tagged Tinagl1 (Tinagl1-HA) (protein, not shown: small tags and cut ends)
chain: AQQGRGRRELAPGLHLRGIRDAGGRYCQEQDLCCRGRADDCALPYLGAICYCDLFCNRTVSDCCPDFWDFCLGVPPPFPPIQGCMHGGRIYPVLGTYWDNCNRCTCQENRQWQCDQEPCLVDPDMIKAINQGNYGWQAGNHSAFWGMTLDEGIRYRLGTIRPSSSVMNMHEIYTVLNPGEVLPTAFEASEKWPNLIHEPLDQGNCAGSWAFSTAAVASDRVSIHSLGHMTPVLSPQNLLSCDTHQQQGCRGGRLDGAWWFLRRRGVVSDHCYPFSGRERDEAGPAPPCMMHSRAMGRGKRQATAHCPNSYVNNNDIYQVTPVYRLGSNDKEIMKELMENGPVQALMEVHEDFFLYKGGIYSHTPVSLGRPERYRRHGTHSVKITGWGEETLPDGRTLKYWTAANSWGPAWGERGHFRIVRGVNECDIESFVLGVWGRVGMEDMGHH
Consider B2, for which the binding entry in assay [2] is listed as “binds”.

The record behind these values is US20210379147A1, “METHOD AND SYSTEM FOR TREATING CANCER UTILIZING TINAGL1” (The Trustees of Princeton University, priority 2018, published 2021).
